# No constants are given. Whether binding was seen depends on the method and setting. Binding calls can cover weak binding; strength is not graded here. For some of these results: Where a sequence is shown, tags or fusion partners need not be part of it. For some of these results: Binding seen in cells or lysates may run through a third protein.
# Chains of the proteins cited; added tags and fusions are not shown. Lines headed by an entry give the natural chain unless they say otherwise; changes in a name come on top.
# UniProt P02566: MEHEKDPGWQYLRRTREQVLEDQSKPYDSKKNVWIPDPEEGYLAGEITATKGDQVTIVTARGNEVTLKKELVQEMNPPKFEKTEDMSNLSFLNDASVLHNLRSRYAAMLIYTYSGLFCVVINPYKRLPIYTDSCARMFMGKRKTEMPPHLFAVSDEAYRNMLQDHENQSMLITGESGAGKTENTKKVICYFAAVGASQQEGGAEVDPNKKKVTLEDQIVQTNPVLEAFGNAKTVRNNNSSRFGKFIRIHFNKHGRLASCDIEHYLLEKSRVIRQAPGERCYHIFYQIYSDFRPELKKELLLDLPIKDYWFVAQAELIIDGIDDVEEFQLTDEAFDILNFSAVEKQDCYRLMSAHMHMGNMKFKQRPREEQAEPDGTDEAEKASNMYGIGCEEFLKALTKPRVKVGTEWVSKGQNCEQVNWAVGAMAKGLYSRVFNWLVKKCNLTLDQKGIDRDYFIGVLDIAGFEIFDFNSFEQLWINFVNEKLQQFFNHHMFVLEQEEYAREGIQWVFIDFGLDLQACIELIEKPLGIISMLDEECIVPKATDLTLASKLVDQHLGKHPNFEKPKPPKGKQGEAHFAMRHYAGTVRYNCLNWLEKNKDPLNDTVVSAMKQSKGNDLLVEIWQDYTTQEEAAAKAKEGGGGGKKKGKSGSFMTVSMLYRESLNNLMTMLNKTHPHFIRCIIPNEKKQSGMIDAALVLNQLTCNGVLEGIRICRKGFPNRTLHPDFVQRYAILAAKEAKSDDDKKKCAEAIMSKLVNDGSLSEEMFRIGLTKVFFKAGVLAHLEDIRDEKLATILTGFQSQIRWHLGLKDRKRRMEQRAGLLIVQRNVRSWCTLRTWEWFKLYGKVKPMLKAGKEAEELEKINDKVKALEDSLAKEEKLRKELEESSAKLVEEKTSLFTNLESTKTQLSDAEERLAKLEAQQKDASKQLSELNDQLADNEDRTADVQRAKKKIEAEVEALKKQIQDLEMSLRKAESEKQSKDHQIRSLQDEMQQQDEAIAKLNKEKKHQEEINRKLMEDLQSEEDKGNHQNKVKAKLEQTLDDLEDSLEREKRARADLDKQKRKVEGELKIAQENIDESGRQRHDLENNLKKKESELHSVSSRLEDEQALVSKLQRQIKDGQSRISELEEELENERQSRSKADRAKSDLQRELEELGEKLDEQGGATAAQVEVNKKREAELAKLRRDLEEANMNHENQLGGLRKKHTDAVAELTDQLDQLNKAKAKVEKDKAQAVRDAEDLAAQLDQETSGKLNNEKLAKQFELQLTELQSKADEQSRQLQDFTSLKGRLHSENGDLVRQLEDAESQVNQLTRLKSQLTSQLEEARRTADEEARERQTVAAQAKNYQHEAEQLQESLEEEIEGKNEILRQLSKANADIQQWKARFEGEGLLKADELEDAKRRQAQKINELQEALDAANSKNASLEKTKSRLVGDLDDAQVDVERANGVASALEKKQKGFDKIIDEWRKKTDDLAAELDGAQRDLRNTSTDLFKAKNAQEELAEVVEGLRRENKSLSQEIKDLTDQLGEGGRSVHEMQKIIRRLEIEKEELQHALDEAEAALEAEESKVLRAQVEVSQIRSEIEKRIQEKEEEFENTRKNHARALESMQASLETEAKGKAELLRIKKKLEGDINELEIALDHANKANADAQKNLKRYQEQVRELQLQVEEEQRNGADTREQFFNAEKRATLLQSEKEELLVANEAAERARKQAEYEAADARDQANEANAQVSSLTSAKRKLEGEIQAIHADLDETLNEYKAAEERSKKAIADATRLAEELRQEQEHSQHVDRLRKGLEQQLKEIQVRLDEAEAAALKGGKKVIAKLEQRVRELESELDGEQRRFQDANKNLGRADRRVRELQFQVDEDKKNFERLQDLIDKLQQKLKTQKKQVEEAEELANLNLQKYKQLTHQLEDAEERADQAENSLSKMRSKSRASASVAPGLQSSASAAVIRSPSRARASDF
# UniProt O16266: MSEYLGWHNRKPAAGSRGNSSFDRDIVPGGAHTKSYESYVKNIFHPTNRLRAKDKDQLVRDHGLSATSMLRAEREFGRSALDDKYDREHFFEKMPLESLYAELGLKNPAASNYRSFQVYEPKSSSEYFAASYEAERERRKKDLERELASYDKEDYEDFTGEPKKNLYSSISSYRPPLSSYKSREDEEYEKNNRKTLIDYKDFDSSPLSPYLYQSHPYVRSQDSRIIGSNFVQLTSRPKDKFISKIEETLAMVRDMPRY
# T1: UNC-45 (endogenous) (C. elegans) (UniProt G5EG62)
# T1 sequence: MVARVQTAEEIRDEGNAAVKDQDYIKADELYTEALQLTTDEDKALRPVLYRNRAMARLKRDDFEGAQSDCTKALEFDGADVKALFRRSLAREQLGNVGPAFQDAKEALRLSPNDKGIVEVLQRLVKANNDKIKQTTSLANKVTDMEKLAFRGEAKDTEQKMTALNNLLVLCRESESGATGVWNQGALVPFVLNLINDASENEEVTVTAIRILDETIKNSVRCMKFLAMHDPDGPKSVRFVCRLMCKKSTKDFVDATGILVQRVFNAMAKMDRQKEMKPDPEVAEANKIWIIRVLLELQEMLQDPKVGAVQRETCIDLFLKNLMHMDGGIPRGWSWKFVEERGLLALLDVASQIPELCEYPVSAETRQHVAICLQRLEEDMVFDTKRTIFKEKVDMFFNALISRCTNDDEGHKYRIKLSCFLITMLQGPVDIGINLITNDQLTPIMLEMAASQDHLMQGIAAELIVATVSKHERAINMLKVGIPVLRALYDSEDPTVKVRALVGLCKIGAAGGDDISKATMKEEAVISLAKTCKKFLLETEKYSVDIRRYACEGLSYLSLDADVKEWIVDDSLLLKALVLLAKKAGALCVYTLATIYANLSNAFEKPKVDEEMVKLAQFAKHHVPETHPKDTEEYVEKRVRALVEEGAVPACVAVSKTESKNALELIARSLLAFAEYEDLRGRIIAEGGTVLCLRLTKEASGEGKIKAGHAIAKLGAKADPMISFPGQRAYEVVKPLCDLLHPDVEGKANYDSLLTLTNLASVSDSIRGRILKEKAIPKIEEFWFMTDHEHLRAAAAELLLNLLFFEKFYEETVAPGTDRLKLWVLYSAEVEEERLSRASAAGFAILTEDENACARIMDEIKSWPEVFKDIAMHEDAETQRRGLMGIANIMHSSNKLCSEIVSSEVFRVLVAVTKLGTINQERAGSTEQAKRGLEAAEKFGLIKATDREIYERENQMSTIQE
# T2: FLAG-NHL-1 (C. elegans) (UniProt Q03601)
# T2 sequence: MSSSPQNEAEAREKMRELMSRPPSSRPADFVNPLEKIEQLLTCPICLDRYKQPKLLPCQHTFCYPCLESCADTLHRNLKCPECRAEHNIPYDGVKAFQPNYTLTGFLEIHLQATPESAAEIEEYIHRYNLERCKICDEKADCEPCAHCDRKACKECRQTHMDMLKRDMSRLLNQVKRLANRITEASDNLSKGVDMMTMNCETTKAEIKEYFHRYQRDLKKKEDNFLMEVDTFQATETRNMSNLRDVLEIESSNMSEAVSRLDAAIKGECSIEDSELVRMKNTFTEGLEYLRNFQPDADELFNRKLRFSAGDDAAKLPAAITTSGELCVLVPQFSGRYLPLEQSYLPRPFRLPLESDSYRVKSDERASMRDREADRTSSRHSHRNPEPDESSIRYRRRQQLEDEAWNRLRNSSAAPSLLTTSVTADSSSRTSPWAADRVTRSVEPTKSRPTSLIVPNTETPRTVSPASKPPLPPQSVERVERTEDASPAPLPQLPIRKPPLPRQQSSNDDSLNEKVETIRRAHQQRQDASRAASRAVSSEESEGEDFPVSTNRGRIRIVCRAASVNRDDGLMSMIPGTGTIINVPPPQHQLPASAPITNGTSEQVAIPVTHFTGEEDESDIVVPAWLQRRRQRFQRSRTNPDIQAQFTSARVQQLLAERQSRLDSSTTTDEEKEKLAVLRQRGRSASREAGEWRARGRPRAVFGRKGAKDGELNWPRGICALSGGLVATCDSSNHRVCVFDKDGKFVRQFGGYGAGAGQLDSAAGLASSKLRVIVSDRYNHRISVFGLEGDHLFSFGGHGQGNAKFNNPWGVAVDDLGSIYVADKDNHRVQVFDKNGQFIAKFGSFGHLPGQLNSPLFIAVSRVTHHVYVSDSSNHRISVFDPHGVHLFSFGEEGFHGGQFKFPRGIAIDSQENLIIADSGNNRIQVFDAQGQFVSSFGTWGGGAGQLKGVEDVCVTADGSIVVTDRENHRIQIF
# Tests used:
# [1] = target: T1, UNC-45 (endogenous) (C. elegans); assay: co-IP; UNC-45 antibody, from worm lysates (transgenic worms with FLAG-NHL-1 and HA-F40A3.6; unc-45 mutants), done as the FLAG co-immunoprecipitation; western blot
# [2] = target: T2, FLAG-NHL-1 (C. elegans); assay: co-IP; anti-FLAG (M2) and Dynabeads Protein A from lysates (NP40 lysis buffer, diluted in PBS with 0.02% Tween-20, 4 °C) of transgenic worms with FLAG-NHL-1 and HA-F40A3.6 in wild-type or unc-54(e1301) background, 25 °C for 24 h before collection; western blot
# [3] = target: UNC-54 (myosin heavy chain B, MHC B) (C. elegans) (UniProt P02566); assay: co-IP; UNC-54/MHC B antibody, from lysates of transgenic worms with FLAG-NHL-1 and HA-F40A3.6, done as the FLAG co-immunoprecipitation; western blot
# [4] = target: F40A3.6 (GAL4 two-hybrid fusion) (C. elegans); assay: two-hybrid; Matchmaker GAL4 yeast two-hybrid system 3, AH109 yeast, AD and BD fusions in varying combinations, growth on SD/-Leu/-Trp/-His at 30 °C for 4-5 days
molecule,measurement,setting,value
HA-F40A3.6 (from UniProt O16266),binding,[1],binds
same,binding,[2],binds
same,binding,[3],binds
"UNC-45 (GAL4 two-hybrid fusion) (protein, UniProt G5EG62 1-961) MVARVQTAEEIRDEGNAAVKDQDYIKADELYTEALQLTTDEDKALRPVLYRNRAMARLKRDDFEGAQSDCTKALEFDGADVKALFRRSLAREQLGNVGPAFQDAKEALRLSPNDKGIVEVLQRLVKANNDKIKQTTSLANKVTDMEKLAFRGEAKDTEQKMTALNNLLVLCRESESGATGVWNQGALVPFVLNLINDASENEEVTVTAIRILDETIKNSVRCMKFLAMHDPDGPKSVRFVCRLMCKKSTKDFVDATGILVQRVFNAMAKMDRQKEMKPDPEVAEANKIWIIRVLLELQEMLQDPKVGAVQRETCIDLFLKNLMHMDGGIPRGWSWKFVEERGLLALLDVASQIPELCEYPVSAETRQHVAICLQRLEEDMVFDTKRTIFKEKVDMFFNALISRCTNDDEGHKYRIKLSCFLITMLQGPVDIGINLITNDQLTPIMLEMAASQDHLMQGIAAELIVATVSKHERAINMLKVGIPVLRALYDSEDPTVKVRALVGLCKIGAAGGDDISKATMKEEAVISLAKTCKKFLLETEKYSVDIRRYACEGLSYLSLDADVKEWIVDDSLLLKALVLLAKKAGALCVYTLATIYANLSNAFEKPKVDEEMVKLAQFAKHHVPETHPKDTEEYVEKRVRALVEEGAVPACVAVSKTESKNALELIARSLLAFAEYEDLRGRIIAEGGTVLCLRLTKEASGEGKIKAGHAIAKLGAKADPMISFPGQRAYEVVKPLCDLLHPDVEGKANYDSLLTLTNLASVSDSIRGRILKEKAIPKIEEFWFMTDHEHLRAAAAELLLNLLFFEKFYEETVAPGTDRLKLWVLYSAEVEEERLSRASAAGFAILTEDENACARIMDEIKSWPEVFKDIAMHEDAETQRRGLMGIANIMHSSNKLCSEIVSSEVFRVLVAVTKLGTINQERAGSTEQAKRGLEAAEKFGLIKATDREIYERENQMSTIQE",binding,[4],binds

# — publication PMC11317515
